Laboratory results taken from the supplement of paper PMC12067093, “Discovery and optimisation of a covalent ligand for TRIM25 and its application to targeted protein ubiquitination” (Chemical Science, 2025).
The list shows a part of the results.

By UniProt entry, the sequences of proteins in these tests, tags left out. Where a name states a change or a piece, a line headed by the entry shows the natural chain unless it says otherwise.
UniProt P38435: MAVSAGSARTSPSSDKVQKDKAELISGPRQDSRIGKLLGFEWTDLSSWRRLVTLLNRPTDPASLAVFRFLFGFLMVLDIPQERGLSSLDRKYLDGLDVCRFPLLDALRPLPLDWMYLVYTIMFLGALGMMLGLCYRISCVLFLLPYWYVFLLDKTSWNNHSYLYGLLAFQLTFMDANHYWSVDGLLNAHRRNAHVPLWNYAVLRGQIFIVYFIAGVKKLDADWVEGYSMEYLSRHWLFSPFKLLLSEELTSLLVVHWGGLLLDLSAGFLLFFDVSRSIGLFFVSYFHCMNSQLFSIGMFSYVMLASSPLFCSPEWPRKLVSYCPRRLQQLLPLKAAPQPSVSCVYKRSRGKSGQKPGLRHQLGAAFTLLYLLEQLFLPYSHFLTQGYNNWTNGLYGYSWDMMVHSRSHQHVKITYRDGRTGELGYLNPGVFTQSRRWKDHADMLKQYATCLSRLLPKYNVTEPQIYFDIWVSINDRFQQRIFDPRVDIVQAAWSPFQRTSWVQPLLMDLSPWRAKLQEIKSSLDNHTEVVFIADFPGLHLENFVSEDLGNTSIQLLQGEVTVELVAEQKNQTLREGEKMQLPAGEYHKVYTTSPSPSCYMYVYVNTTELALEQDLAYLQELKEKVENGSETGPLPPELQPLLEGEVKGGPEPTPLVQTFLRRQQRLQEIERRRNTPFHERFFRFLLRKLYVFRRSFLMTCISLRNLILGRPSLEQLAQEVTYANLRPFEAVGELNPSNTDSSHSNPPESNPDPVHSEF
UniProt Q8IWJ2: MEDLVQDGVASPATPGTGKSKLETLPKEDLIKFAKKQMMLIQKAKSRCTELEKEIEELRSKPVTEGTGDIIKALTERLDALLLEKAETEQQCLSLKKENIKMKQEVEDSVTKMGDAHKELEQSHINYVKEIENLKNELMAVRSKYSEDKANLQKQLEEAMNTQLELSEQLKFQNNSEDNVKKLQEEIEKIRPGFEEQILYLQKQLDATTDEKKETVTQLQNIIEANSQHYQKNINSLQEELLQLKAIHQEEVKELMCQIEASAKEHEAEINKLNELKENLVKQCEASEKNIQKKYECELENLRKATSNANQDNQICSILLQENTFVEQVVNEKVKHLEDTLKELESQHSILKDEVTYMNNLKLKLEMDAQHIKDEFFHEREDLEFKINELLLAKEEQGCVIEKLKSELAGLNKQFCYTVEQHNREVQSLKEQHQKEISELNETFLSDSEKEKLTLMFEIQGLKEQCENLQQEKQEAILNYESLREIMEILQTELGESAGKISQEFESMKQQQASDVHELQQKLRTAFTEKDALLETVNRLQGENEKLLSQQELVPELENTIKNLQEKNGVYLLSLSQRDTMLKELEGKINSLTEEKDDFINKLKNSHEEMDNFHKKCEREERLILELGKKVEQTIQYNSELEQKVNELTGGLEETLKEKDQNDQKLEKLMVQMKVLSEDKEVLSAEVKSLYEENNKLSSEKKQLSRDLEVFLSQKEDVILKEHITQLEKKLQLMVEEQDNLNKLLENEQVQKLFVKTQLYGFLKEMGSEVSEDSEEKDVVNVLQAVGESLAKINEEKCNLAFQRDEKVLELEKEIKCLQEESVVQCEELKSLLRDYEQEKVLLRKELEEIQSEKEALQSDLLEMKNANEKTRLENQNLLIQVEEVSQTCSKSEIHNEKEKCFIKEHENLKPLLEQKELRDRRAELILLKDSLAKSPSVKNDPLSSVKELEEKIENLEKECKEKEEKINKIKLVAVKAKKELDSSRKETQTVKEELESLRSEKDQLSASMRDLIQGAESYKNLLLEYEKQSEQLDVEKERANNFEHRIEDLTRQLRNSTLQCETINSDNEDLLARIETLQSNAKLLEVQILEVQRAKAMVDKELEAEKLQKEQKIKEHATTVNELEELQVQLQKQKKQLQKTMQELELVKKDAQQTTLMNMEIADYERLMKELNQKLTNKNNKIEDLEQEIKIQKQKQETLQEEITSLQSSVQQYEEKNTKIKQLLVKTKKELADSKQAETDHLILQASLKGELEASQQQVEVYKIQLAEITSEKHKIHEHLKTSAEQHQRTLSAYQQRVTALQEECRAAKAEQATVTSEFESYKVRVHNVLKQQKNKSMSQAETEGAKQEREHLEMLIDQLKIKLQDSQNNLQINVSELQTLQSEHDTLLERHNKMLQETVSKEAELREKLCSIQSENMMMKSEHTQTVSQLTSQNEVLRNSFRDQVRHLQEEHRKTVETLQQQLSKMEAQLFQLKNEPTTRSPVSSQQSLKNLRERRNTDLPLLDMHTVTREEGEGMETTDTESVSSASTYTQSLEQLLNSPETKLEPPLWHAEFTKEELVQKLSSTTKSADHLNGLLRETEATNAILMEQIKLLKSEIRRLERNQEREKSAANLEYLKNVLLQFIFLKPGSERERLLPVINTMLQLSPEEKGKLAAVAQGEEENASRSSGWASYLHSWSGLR
UniProt O75223: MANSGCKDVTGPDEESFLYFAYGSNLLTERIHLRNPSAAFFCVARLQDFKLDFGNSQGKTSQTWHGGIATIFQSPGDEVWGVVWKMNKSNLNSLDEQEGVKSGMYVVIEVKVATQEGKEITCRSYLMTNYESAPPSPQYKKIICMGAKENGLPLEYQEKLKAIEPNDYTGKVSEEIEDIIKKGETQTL
UniProt O14893: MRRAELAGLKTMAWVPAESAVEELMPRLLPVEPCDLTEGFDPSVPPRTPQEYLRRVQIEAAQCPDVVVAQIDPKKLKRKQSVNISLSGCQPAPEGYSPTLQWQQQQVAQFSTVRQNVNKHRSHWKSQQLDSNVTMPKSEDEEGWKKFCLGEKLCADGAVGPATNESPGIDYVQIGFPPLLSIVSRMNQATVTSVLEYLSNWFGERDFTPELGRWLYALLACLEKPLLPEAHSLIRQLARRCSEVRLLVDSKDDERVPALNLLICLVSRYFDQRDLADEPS
UniProt O95749: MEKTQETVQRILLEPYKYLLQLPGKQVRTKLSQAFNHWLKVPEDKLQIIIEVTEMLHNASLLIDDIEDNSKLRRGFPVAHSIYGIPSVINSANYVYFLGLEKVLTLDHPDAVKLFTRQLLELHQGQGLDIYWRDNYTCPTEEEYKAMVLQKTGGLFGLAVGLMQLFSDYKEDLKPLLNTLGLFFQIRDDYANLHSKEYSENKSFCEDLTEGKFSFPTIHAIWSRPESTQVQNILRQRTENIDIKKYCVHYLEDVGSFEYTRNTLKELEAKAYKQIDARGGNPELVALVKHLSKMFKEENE
UniProt Q86SF2: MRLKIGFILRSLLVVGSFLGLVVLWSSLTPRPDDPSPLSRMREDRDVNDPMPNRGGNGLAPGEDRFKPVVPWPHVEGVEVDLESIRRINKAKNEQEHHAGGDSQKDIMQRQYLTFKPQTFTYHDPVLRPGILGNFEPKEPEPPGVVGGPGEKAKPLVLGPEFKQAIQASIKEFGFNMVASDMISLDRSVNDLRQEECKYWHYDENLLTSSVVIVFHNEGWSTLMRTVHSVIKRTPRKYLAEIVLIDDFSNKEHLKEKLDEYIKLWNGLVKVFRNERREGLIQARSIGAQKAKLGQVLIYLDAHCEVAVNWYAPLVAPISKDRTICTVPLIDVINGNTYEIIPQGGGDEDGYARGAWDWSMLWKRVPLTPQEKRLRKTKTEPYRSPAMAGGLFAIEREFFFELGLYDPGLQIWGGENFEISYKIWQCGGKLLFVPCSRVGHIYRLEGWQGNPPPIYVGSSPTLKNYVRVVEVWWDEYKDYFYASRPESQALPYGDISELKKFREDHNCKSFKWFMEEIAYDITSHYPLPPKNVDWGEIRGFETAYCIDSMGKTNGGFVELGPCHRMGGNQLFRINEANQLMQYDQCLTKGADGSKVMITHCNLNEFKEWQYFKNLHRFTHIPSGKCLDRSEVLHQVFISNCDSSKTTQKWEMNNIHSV
UniProt Q8WWP7: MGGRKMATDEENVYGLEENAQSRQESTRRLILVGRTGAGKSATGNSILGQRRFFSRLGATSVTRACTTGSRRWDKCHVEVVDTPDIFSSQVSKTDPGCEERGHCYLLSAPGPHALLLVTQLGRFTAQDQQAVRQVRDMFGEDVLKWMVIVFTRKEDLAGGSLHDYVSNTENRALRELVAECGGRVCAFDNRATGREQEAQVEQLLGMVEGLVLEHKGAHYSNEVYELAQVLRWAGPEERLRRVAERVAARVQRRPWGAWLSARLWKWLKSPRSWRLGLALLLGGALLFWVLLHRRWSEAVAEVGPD
UniProt Q10472: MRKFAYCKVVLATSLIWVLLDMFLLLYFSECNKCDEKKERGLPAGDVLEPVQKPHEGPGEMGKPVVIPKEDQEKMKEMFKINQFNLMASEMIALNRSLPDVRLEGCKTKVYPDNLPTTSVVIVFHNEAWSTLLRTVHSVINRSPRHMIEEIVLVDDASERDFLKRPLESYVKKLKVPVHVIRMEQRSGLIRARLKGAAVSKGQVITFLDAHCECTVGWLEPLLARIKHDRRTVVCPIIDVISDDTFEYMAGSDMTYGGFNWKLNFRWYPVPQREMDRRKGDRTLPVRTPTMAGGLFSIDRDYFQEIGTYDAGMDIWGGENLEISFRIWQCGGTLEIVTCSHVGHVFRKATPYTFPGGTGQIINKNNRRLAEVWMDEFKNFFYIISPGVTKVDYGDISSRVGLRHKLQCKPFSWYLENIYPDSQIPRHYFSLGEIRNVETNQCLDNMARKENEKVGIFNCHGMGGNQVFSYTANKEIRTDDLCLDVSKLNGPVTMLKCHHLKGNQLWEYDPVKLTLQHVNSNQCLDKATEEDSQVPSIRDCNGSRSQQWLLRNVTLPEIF
UniProt P32189: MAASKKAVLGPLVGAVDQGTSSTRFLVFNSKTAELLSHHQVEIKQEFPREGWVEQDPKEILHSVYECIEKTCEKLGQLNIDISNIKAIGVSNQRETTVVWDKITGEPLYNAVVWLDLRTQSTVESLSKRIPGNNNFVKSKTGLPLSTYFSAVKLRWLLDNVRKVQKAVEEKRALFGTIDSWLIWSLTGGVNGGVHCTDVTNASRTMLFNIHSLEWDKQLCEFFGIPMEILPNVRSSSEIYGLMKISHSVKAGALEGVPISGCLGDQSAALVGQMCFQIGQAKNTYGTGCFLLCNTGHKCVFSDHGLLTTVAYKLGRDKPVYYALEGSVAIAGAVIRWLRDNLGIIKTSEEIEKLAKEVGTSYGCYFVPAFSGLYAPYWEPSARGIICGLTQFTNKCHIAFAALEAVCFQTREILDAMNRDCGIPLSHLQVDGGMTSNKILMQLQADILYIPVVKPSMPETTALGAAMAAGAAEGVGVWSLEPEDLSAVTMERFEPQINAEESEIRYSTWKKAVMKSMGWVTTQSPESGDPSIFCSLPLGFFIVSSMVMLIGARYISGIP
UniProt P48507: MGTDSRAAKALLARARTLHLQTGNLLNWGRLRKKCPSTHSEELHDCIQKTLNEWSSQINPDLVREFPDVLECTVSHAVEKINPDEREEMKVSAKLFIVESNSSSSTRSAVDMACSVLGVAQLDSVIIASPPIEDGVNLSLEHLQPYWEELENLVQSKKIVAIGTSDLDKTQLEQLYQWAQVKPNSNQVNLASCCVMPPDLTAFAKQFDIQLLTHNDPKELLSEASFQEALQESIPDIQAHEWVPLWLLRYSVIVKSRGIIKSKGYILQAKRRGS
UniProt P28676: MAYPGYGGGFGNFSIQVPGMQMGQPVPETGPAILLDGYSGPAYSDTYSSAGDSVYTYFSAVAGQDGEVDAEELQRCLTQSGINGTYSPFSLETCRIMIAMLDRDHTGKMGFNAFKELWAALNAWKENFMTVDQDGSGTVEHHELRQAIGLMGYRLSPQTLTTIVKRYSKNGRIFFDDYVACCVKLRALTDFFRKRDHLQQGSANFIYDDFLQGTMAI
UniProt Q96RP9: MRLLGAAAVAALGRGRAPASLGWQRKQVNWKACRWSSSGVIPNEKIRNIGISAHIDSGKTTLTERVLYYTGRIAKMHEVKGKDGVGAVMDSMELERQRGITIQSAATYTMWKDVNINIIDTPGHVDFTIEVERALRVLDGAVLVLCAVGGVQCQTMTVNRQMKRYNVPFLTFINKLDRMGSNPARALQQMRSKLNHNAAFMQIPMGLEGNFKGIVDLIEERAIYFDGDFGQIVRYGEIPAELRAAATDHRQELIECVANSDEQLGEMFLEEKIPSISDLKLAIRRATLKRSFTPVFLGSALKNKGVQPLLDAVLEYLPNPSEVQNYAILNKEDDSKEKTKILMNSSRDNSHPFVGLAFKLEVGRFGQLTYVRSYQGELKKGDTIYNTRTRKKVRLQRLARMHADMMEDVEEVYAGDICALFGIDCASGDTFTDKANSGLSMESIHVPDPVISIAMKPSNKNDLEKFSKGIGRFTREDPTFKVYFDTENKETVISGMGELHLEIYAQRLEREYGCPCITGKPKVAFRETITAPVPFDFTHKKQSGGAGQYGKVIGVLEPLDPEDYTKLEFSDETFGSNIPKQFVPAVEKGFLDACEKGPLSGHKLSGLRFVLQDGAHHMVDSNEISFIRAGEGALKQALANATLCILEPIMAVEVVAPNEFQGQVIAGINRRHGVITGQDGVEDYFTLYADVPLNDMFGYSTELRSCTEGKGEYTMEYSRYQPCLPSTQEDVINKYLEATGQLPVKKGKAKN

Compound: Cc1cc(ccc1-c1ccccc1)C(=O)N1CCCN(CC1)C(=O)CCl [compound 10]
Assay: probe-labelled cysteine peptide fold change vs DMSO (competition) (log2 fold change); higher = less target engagement (more negative = stronger competition)
Settings: THP-1, incubation time: 4 h
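Further: competitive profiling in live THP-1 cells: cysteine peptides tagged with an iodoacetamide desthiobiotin (IA-DTB) probe, intensity after compound treatment relative to DMSO-treated cells.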

| Target | probe-labelled cysteine peptide fold change (10 µM) | probe-labelled cysteine peptide fold change (50 µM) |
| --- | --- | --- |
| GFM2_Q969S9_248_LLWNCNSNDGK (UniProt Q969S9) | -0.353 | -0.937 |
| GALNT2_Q10471_227+229_VLTFLDSHCECNEHWLEPLLER (UniProt Q10471) | -0.298 | -0.368 |
| GGCX_P38435_343_AAPQPSVSCVYK (UniProt P38435) | -0.0547 | -0.0533 |
| GCN1_Q92616_907_NPFLSLAACVMPSR (UniProt Q92616) | -0.19 | 0.292 |
| GCC2_Q8IWJ2_817+826_CLQEESVVQCEELK (UniProt Q8IWJ2) | -0.104 | -0.221 |
| GGCT_O75223_144_IICMGAK (UniProt O75223) | -0.089 | -0.0656 |
| GEMIN2_O14893_63_RVQIEAAQCPDVVVAQIDPK (UniProt O14893) | -0.27 | -0.164 |
| GGPS1_O95749_247_YCVHYLEDVGSFEYTR (UniProt O95749) | -0.0424 | 0.118 |
| GALNT7_Q86SF2_545_GFETAYCIDSMGK (UniProt Q86SF2) | -0.0613 | 0.095 |
| GIMAP1_Q8WWP7_76_CHVEVVDTPDIFSSQVSK (UniProt Q8WWP7) | 0.0487 | -0.0654 |
| GALNT1_Q10472_482_EIRTDDLCLDVSK (UniProt Q10472) | -0.0512 | -0.0895 |
| GK_P32189_299_CVFSDHGLLTTVAYK (UniProt P32189) | 0.168 | -0.0986 |
| GDI1_P31150_282_QLICDPSYIPDR (UniProt P31150) | 0.0641 | -0.205 |
| GBP4_Q96PP9_374_LPTDTLQELLDVHAACER (UniProt Q96PP9) | 0.0802 | 0.00478 |
| GCFC2_P16383_336_IYVENLIDCLNEK (UniProt P16383) | -0.00417 | 0.135 |
| GANAB_Q14697_47_TCEESSFCK (UniProt Q14697) | 0.169 | 0.227 |
| GHDC_Q8N2G8_523_HLAQCLQER (UniProt Q8N2G8) | -0.142 | 0.0752 |
| GBF1_Q92538_1430_IFVEASLNGGCK (UniProt Q92538) | -0.194 | -0.371 |
| GCLM_P48507_35+46_CPSTHSEELHDCIQK (UniProt P48507) | -0.112 | -0.843 |
| GCA_P28676_182_IFFDDYVACCVK (UniProt P28676) | 0.0552 | -0.105 |
| GFM1_Q96RP9_706_SCTEGK (UniProt Q96RP9) | -0.0868 | 0.111 |
| GATD1_Q8NB37_132_ILQHFHSESKPICAVGHGVAALCCATNEDR (UniProt Q8NB37) | 0.201 | 0.142 |
| GCC2_Q8IWJ2_1306_VTALQEECR (UniProt Q8IWJ2) | 0.122 | 0.145 |

An excerpt of these results, with bars between the fields.
Target | probe-labelled cysteine peptide fold change (10 µM) | probe-labelled cysteine peptide fold change (50 µM)
GCA_P28676_182_IFFDDYVACCVK (UniProt P28676) | 0.0552 | -0.105
GFM1_Q96RP9_706_SCTEGK (UniProt Q96RP9) | -0.0868 | 0.111
